Data as given in PubChem BioAssay AID1259308 (NCATS, 2017)

Screen: 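Knock-downs that increase output of a recombinant reporter protein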 (primary screen)
Cells: human HEK293 embryonic kidney cells stably expressing firefly luciferase (HEK-CMV-Luc2-Hygro)
Knock-down reagent: single siRNA against human genes, 0.8 pmol siRNA per well
Duration: 72 h
Measured: 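Luciferase light (ONE-Glo) measured on one replicate plate set and viability (CellTiter-Glo) on the other, scaled to a negative control siRNA, with robust z-scores and luciferase per cell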
Direction: total luciferase, z-score and total luciferase, % of control: higher = more reporter protein produced; luciferase per cell, z-score: higher = more reporter output per viable cell; viable cells, % of control: higher = more viable cells
Hit rule: 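Active when the median/MAD z-score for overall luciferase is greater than 3; a gene was taken forward for validation with new siRNAs if at least two of its three siRNAs passed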
Calls: active = raised luciferase; inactive = no rise
The whole screen tested about 59,000 reagents; this is a random part of them. In the full data, about 1,510 (2.6%) are marked active. 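Calls use total luciferase alone and ignore viability, so some active siRNAs may act by altering cell number.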 The numbers tell different reagents against one gene apart. No sequences are given here.

target gene | siRNA no. | total luciferase, z-score | total luciferase, % of control | luciferase per cell, z-score | viable cells, % of control | Outcome
AFG2A (AAA ATPase AFG2A) | 1 | -0.228 | 77.4 | 0.155 | 83 | inactive
AFG2A (AAA ATPase AFG2A) | 2 | -1.01 | 61.8 | -1.49 | 102 | inactive
AFG2A (AAA ATPase AFG2A) | 3 | -0.575 | 70.4 | -1.27 | 110 | inactive
SNX13 (sorting nexin 13) | 1 | -0.324 | 75.4 | -0.403 | 93.7 | inactive
SNX13 (sorting nexin 13) | 2 | -0.618 | 69.6 | -0.67 | 92.8 | inactive
SNX13 (sorting nexin 13) | 3 | 0.266 | 87.2 | -0.017 | 97.8 | inactive
TNKS2 (tankyrase 2) | 1 | 1.74 | 116 | 2.17 | 73.5 | inactive
TNKS2 (tankyrase 2) | 2 | 0.587 | 93.6 | 1.26 | 75 | inactive
TNKS2 (tankyrase 2) | 3 | -1.02 | 61.7 | -0.804 | 85.2 | inactive
TSPO (translocator protein) | 1 | -0.479 | 72.4 | -1.03 | 106 | inactive
TSPO (translocator protein) | 2 | -1 | 61.9 | -1.07 | 91.6 | inactive
TSPO (translocator protein) | 3 | -1.77 | 46.8 | -1.84 | 84.9 | inactive
OBSL1 (obscurin like cytoskeletal adaptor 1) | 1 | 0.231 | 86.5 | 0.462 | 85.6 | inactive
OBSL1 (obscurin like cytoskeletal adaptor 1) | 2 | -0.117 | 79.6 | -0.0232 | 89.5 | inactive
OBSL1 (obscurin like cytoskeletal adaptor 1) | 3 | -0.658 | 68.8 | 0.387 | 69.4 | inactive
CPTP (ceramide-1-phosphate transfer protein) | 1 | 0.141 | 84.7 | 0.256 | 88.5 | inactive
CPTP (ceramide-1-phosphate transfer protein) | 2 | -0.224 | 77.4 | -0.485 | 98.3 | inactive
CPTP (ceramide-1-phosphate transfer protein) | 3 | 0.802 | 97.8 | 0.847 | 87.5 | inactive
SLC25A14 | 1 | -0.0171 | 81.5 | 0.558 | 78.7 | inactive
SLC25A14 | 2 | 1.33 | 108 | 0.832 | 97.3 | inactive
SLC25A14 | 3 | -0.0495 | 80.9 | -0.806 | 112 | inactive
ACTG1 (actin gamma 1) | 1 | -0.656 | 68.8 | -0.0863 | 78.7 | inactive
ACTG1 (actin gamma 1) | 2 | -0.973 | 62.5 | -0.607 | 82 | inactive
ACTG1 (actin gamma 1) | 3 | -2.1 | 40.1 | -1.32 | 63.4 | inactive

Single entries from above:
Value of SLC25A14 #3 under “Outcome”: inactive
For “total luciferase, % of control”, ACTG1 (actin gamma 1) #1 reads 68.8
Under “luciferase per cell, z-score”, ACTG1 (actin gamma 1) #2 shows -0.607
For “viable cells, % of control”, SNX13 (sorting nexin 13) #1 shows 93.7
Entry of OBSL1 (obscurin like cytoskeletal adaptor 1) #1 under “total luciferase, z-score”: 0.231
For “total luciferase, % of control”, SLC25A14 #1 reads 81.5

Further records follow.
target gene | siRNA no. | total luciferase, z-score | total luciferase, % of control | luciferase per cell, z-score | viable cells, % of control | Outcome
CDC7 (cell division cycle 7) | 1 | 0.181 | 85.5 | 0.734 | 78.7 | inactive
CDC7 (cell division cycle 7) | 2 | 0.489 | 91.6 | 0.371 | 92.8 | inactive
CDC7 (cell division cycle 7) | 3 | -0.843 | 65.1 | -0.326 | 79.3 | inactive
MIR99AHG (mir-99a-let-7c cluster host gene) | 1 | -1.66 | 48.8 | -1.47 | 80.2 | inactive
MIR99AHG (mir-99a-let-7c cluster host gene) | 2 | -1.76 | 46.8 | -1.28 | 73.4 | inactive
MIR99AHG (mir-99a-let-7c cluster host gene) | 3 | -1.09 | 60.2 | -1.32 | 95.3 | inactive
SLC16A4 | 1 | -1.48 | 52.5 | -1.46 | 86.1 | inactive
SLC16A4 | 2 | 0.392 | 89.7 | 0.135 | 96.7 | inactive
SLC16A4 | 3 | -0.507 | 71.8 | -1.01 | 105 | inactive
PHLDA3 (pleckstrin homology like domain family A member 3) | 1 | 2.03 | 122 | 0.439 | 122 | inactive
PHLDA3 (pleckstrin homology like domain family A member 3) | 2 | 0.862 | 99 | 0.691 | 92.2 | inactive
PHLDA3 (pleckstrin homology like domain family A member 3) | 3 | 0.161 | 85.1 | -0.144 | 98.7 | inactive
GALNT9 (polypeptide N-acetylgalactosaminyltransferase 9) | 1 | -0.811 | 65.8 | 0.08 | 71.9 | inactive
GALNT9 (polypeptide N-acetylgalactosaminyltransferase 9) | 2 | -0.55 | 70.9 | -0.618 | 93.3 | inactive
GALNT9 (polypeptide N-acetylgalactosaminyltransferase 9) | 3 | 0.677 | 95.4 | 0.571 | 91.7 | inactive
SNX9 (sorting nexin 9) | 1 | 7.42 | 229 | 4.51 | 78.1 | active
SNX9 (sorting nexin 9) | 2 | -0.195 | 78 | -0.105 | 89.6 | inactive
SNX9 (sorting nexin 9) | 3 | 1.27 | 107 | 0.537 | 104 | inactive
RTN4RL2 (reticulon 4 receptor like 2) | 1 | 0.169 | 85.3 | 0.489 | 83.8 | inactive
RTN4RL2 (reticulon 4 receptor like 2) | 2 | -0.148 | 78.9 | -0.125 | 91.2 | inactive
RTN4RL2 (reticulon 4 receptor like 2) | 3 | -1.03 | 61.5 | -1.89 | 113 | inactive
AMMECR1 (AMMECR nuclear protein 1) | 1 | -0.613 | 69.7 | -0.693 | 93.5 | inactive
AMMECR1 (AMMECR nuclear protein 1) | 2 | 1.27 | 107 | 1.22 | 86.9 | inactive
AMMECR1 (AMMECR nuclear protein 1) | 3 | 0.734 | 96.5 | 0.648 | 90.9 | inactive
SDCBP (syndecan binding protein) | 1 | 1.24 | 107 | 0.659 | 100 | inactive
SDCBP (syndecan binding protein) | 2 | -1.19 | 58.3 | -0.469 | 73.7 | inactive
SDCBP (syndecan binding protein) | 3 | -0.18 | 78.3 | -0.227 | 92.9 | inactive
SPATA16 (spermatogenesis associated 16) | 1 | 0.285 | 87.6 | 0.58 | 84 | inactive
SPATA16 (spermatogenesis associated 16) | 2 | -0.521 | 71.5 | -0.502 | 91.2 | inactive
SPATA16 (spermatogenesis associated 16) | 3 | 0.0179 | 82.2 | -0.418 | 103 | inactive
PPIA (peptidylprolyl isomerase A) | 1 | -0.803 | 65.9 | -1.41 | 107 | inactive
PPIA (peptidylprolyl isomerase A) | 2 | -0.705 | 67.9 | -1.06 | 100 | inactive
PPIA (peptidylprolyl isomerase A) | 3 | 0.0714 | 83.3 | 0.624 | 79 | inactive
